# In article PMC4022412:
# Protein sequences, listed by entry. Tags and fused reporters are not part of them. Chains listed by the source or under a name are the forms on record and can include a tag or linker. Residues count along the entry.
# GST-N-SERT (N-terminal domain of the rat serotonin transporter, residues 1 to 85, fused to glutathione S-transferase) (P31652, residues 1-85): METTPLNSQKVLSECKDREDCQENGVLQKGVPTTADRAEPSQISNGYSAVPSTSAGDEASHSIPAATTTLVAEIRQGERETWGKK
# UniProt P31652, residues 595-630: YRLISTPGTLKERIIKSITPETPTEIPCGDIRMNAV
# UniProt P50516: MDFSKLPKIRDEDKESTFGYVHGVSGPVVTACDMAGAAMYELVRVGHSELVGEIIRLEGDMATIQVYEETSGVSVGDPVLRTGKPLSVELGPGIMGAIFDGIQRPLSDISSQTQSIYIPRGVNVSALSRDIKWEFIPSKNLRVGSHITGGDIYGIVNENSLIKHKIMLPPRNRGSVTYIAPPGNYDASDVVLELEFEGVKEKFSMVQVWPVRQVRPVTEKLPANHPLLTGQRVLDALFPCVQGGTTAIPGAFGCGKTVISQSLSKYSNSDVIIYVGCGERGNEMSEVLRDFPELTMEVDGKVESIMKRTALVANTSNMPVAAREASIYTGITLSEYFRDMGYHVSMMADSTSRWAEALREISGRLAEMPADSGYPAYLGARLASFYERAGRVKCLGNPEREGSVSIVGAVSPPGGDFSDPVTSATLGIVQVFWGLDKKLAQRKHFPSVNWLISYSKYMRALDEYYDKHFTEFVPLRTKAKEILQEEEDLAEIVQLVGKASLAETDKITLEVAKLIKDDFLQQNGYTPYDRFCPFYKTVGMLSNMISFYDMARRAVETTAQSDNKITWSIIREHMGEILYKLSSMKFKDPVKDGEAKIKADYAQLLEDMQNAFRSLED
# UniProt Q8CHC4: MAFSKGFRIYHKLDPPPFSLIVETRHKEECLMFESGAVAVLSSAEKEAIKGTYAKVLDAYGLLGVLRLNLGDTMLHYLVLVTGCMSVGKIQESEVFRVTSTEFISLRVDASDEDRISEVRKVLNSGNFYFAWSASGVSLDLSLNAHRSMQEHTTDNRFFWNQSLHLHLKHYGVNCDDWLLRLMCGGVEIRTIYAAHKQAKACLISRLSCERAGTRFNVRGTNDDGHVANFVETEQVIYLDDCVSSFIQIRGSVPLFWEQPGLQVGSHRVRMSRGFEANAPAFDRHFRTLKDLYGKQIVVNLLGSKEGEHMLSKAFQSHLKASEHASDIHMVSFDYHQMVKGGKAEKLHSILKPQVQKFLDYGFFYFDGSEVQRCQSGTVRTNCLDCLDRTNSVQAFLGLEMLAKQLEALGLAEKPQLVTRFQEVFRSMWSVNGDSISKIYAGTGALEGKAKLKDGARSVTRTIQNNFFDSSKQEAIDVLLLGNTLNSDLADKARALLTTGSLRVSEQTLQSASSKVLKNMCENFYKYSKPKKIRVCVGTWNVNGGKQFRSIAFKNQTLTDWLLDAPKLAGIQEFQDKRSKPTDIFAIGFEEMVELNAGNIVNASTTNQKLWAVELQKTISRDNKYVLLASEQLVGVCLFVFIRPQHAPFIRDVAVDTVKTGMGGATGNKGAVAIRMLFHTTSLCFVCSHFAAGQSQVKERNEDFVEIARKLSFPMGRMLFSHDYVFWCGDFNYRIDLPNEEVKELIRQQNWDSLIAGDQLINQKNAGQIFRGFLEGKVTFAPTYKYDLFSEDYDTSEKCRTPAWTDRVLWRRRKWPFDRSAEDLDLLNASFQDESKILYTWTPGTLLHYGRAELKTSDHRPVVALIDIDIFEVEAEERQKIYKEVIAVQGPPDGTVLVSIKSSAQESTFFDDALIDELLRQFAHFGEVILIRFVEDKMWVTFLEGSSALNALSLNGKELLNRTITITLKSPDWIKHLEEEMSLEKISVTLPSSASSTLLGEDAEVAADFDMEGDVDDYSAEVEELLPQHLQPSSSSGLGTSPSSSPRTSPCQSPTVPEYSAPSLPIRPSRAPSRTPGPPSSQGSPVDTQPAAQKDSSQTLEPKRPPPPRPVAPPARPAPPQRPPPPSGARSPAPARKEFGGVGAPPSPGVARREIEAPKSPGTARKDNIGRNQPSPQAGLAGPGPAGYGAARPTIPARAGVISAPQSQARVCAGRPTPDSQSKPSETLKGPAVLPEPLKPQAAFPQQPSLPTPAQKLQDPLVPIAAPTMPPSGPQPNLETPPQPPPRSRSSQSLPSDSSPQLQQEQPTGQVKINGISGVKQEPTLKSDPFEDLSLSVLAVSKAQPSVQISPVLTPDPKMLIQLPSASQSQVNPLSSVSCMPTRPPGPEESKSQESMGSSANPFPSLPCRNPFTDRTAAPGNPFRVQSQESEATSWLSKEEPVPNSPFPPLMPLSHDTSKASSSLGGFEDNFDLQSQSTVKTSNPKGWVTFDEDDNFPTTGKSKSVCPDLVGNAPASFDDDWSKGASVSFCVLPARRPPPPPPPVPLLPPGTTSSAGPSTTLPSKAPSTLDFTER
# UniProt P97427: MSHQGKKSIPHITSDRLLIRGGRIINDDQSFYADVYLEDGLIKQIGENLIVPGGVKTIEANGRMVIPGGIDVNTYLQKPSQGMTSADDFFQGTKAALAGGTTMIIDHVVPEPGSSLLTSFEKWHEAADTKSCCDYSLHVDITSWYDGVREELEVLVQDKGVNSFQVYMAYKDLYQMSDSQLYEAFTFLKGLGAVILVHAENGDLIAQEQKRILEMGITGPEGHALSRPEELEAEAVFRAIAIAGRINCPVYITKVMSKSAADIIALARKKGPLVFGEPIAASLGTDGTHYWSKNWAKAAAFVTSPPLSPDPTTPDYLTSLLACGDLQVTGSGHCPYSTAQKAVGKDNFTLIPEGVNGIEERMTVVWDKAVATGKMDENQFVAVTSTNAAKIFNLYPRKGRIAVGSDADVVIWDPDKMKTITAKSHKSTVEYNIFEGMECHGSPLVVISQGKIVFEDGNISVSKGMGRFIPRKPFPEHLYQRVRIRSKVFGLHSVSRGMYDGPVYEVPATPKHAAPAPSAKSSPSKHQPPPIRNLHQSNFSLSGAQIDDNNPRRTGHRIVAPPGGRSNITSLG
# UniProt P46460: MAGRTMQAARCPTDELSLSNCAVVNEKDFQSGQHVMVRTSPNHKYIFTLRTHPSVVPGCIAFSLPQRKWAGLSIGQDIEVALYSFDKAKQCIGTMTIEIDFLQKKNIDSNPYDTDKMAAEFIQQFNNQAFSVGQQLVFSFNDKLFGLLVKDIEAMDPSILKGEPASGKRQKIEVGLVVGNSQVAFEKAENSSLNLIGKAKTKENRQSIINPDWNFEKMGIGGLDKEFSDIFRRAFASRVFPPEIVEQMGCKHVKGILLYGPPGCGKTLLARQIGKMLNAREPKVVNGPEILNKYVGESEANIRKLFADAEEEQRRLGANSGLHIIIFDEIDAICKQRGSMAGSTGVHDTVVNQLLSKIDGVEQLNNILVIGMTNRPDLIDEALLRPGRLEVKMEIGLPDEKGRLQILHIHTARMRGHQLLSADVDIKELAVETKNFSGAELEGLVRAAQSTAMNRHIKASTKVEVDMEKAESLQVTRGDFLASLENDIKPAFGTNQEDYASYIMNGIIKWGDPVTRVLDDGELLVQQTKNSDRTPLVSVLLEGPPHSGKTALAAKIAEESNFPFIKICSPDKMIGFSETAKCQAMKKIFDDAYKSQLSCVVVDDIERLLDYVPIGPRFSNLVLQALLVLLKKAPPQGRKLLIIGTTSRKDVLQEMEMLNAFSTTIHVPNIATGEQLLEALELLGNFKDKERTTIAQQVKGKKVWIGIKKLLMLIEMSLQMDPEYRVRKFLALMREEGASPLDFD
# Results are given in words; binding and its absence hold for the method and conditions named. Binding seen in cells or lysates may run through a third protein. These calls come from enrichment with a bait or labelling near it, and not all partners need be listed.
# B1: 2′,3′-cyclic-nucleotide 3′-phosphodiesterase (protein, UniProt P16330 1-420)
# chain: MNTSFTRKSHTFLPKLFFRKMSSSGAKEKPELQFPFLQDEDTVATLHECKTLFILRGLPGSGKSTLARLILEKYHDGTKMVSADAYKIIPGSRADFSEAYKRLDEDLAGYCRRDIRVLVLDDTNHERERLDQLFEMADQYQYQVVLVEPKTAWRLDCAQLKEKNQWQLSADDLKKLKPGLEKDFLPLYFGWFLTKKSSETLRKAGQVFLEELGNHKAFKKELRHFISGDEPKEKLELVSYFGKRPPGVLHCTTKFCDYGKAAGAEEYAQQEVVKRSYGKAFKLSISALFVTPKTAGAQVVLTDQELQLWPSDLDKPSASEGLPPGSRAHVTLGCAADVQPVQTGLDLLDILQQVKGGSQGEAVGELPRGKLYSLGKGRWMLSLTKKMEVKAIFTGYYGKGKPVPIHGSRKGGAMQICTII
# B2: Aconitate hydratase, mitochondrial (protein, UniProt Q99KI0 28-780)
# chain: QRAKVAMSHFEPSEYIRYDLLEKNINIVRKRLNRPLTLSEKIVYGHLDDPANQEIERGKTYLRLRPDRVAMQDATAQMAMLQFISSGLPKVAVPSTIHCDHLIEAQVGGEKDLRRAKDINQEVYNFLATAGAKYGVGFWRPGSGIIHQIILENYAYPGVLLIGTDSHTPNGGGLGGICIGVGGADAVDVMAGIPWELKCPKVIGVKLTGSLSGWTSPKDVILKVAGILTVKGGTGAIVEYHGPGVDSISCTGMATICNMGAEIGATTSVFPYNHRMKKYLSKTGRTDIANLAEEFKDHLVPDPGCQYDQVIEINLNELKPHINGPFTPDLAHPVADVGTVAEKEGWPLDIRVGLIGSCTNSSYEDMGRSAAVAKQALAHGLKCKSQFTITPGSEQIRATIERDGYAQILRDVGGIVLANACGPCIGQWDRKDIKKGEKNTIVTSYNRNFTGRNDANPETHAFVTSPEIVTALAIAGTLKFNPETDFLTGKDGKKFKLEAPDADELPRSDFDPGQDTYQHPPKDSSGQRVDVSPTSQRLQLLEPFDKWDGKDLEDLQILIKVKGKCTTDHISAAGPWLKFRGHLDNISNNLLIGAINIENGKANSVRNAVTQEFGPVPDTARYYKKHGIRWVVIGDENYGEGSSREHAALEPRHLGGRAIITKSFARIHETNLKKQGLLPLTFADPSDYNKIHPVDKLTIQGLKDFAPGKPLKCVIKHPNGTQETILLNHTFNETQIEWFRAGSALNRMKELQQ
# B3: Cullin-associated NEDD8-dissociated protein 1 (protein, UniProt Q6ZQ38 1-1230)
# chain: MASASYHISNLLEKMTSSDKDFRFMATNDLMTELQKDSIKLDDDSERKVVKMILRLLEDKNGEVQNLAVKCLGPLVSKVKEYQVETIVDTLCTNMLSDKEQLRDISSIGLKTVIGELPPASSGSALAANVCKKITGRLTSAIAKQEDVSVQLEALDIMADMLSRQGGLLVNFHPSILTCLLPQLTSPRLAVRKRTIIALGHLVMSCGNIVFVDLIEHLLSELSKNDSMSTTRTYIQCIAAISRQAGHRIGEYLEKIIPLVVKFCNVDDDELREYCIQAFESFVRRCPKEVYPHVSTIINICLKYLTYDPNYNYDDEDEDENAMDADGGDDDDQGSDDEYSDDDDMSWKVRRAAAKCLDAVVSTRHEMLPEFYKTVSPALIARFKEREENVKADVFHAYLSLLKQTRPVQSWLCDPDAMEQGDTPLTMLQSQVPNIVKALHKQMKEKSVKTRQCCFNMLTELVNVLPGALTQHIPVLVPGIIFSLNDKSSSSNLKIDALSCLYVILCNHSPQVFHPHVQALVPPVVACVGDPFYKITSEALLVTQQLVKVIRPLDQPSSFDATPYIKDLFTCTIKRLKAADIDQEVKERAISCMGQIICNLGDNLGPDLSNTLQIFLERLKNEITRLTTVKALTLIAGSPLKIDLRPVLGEGVPILASFLRKNQRALKLGTLSALDILIKNYSDSLTAAMIDAVLDELPPLISESDMHVSQMAISFLTTLAKVYPSSLSKISGSILNELIGLVRSPLLQGGALSAMLDFFQALVVTGTNNLGYMDLLRMLTGPVYSQSTALTHKQSYYSIAKCVAALTRACPKEGPAVVGQFIQDVKNSRSTDSIRLLALLSLGEVGHHIDLSGQLELKSVILEAFSSPSEEVKSAASYALGSISVGNLPEYLPFVLQEITSQPKRQYLLLHSLKEIISSASVAGLKPYVENIWALLLKHCECAEEGTRNVVAECLGKLTLIDPETLLPRLKGYLISGSSYARSSVVTAVKFTISDHPQPIDPLLKNCIGDFLKTLEDPDLNVRRVALVTFNSAAHNKPSLIRDLLDSVLPHLYNETKVRKELIREVEMGPFKHTVDDGLDIRKAAFECMYTLLDSCLDRLDIFEFLNHVEDGLKDHYDIKMLTFLMLVRLSTLCPSAVLQRLDRLVEPLRATCTTKVKANSVKQEFEKQDELKRSAMRAVAALLTIPEAEKSPLMSEFQSQISSNPELAAIFESIQKDSSSTNLESMDTS
# B4: T-complex protein 1 subunit beta (protein, UniProt P80314 1-535)
# chain: MASLSLAPVNIFKAGADEERAETARLSSFIGAIAIGDLVKSTLGPKGMDKILLSSGRDAALMVTNDGATILKNIGVDNPAAKVLVDMSRVQDDEVGDGTTSVTVLAAELLREAESLIAKKIHPQTIISGWREATKAAREALLSSAVDHGSDEARFWQDLMNIAGTTLSSKLLTHHKDHFTKLAVEAVLRLKGSGNLEAIHVIKKLGGSLADSYLDEGFLLDKKIGVNQPKRIENAKILIANTGMDTDKIKIFGSRVRVDSTAKVAEIEHAEKEKMKEKVERILKHGINCFINRQLIYNYPEQLFGAAGVMAIEHADFAGVERLALVTGGEIASTFDHPELVKLGSCKLIEEVMIGEDKLIHFSGVALGEACTIVLRGATQQILDEAERSLHDALCVLAQTVKDPRTVYGGGCSEMLMAHAVTQLANRTPGKEAVAMESFAKALRMLPTIIADNAGYDSADLVAQLRAAHSEGHITAGLDMKEGTIGDMAVLGITESFQVKRQVLLSAAEAAEVILRVDNIIKAAPRKRVPDHHPC
# Tests used:
# [1] = target: GST-N-SERT (N-terminal domain of the rat serotonin transporter, residues 1 to 85, fused to glutathione S-transferase) (rat) (UniProt P31652); experiment: affinity purification with mass spectrometry; GST-N-SERT or GST-C-SERT on glutathione agarose incubated with mouse brain extract at 4°C for 3 h; washed five times with TBS (50 mM Tris-HCl pH 7.4, 150 mM NaCl, 1 mM EDTA); SDS-PAGE, silver staining, bands excised, LC-MS/MS; negative control: beads without extract; only the target purified
# [2] = target: GST-C-SERT (C-terminal domain of the rat serotonin transporter, residues 595 to 630, fused to glutathione S-transferase) (rat) (UniProt P31652); experiment: as above
Molecule,binding [1],binding [2]
V-type proton ATPase catalytic subunit A (from UniProt P50516 1-617),binds,
Synaptojanin 1 (from UniProt Q8CHC4 1-1574),binds,
Dihydropyrimidinase-related protein 1 (from UniProt P97427 1-572),binds,
N-ethylmaleimide-sensitive factor (Vesicle-fusing ATPase) (from UniProt P46460 1-744),binds,
B1,binds,binds
B2,binds,binds
B3,binds,
B4,binds,
